Earlier results on one compound are cited in publication PMC3996760 (Brain research, 2014).

The conditions of this data set: 2 mg/kg i.p., 20 min; ref Savić et al., unpublished data; cited from earlier work.

`CN1C(=O)CN=C(c2ccccc2)c2cc(Cl)ccc21` [diazepam, reference compound]: the “brain estimated free concentration” value is reported as 58.46 nmol/kg.
